The text below walks through data of PubChem BioAssay AID1508600 (Functional Genomics Laboratory (NCATS/FGL), 2020).

About 3,700 (7%) of roughly 53,000 sequences were called active.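 The calls were made as follows: active = gene knockdowns whose robust z-score for IL-1 alpha signal is at least 2 or at most -2, so actives lie on both sides; inactive = the rest.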 Some of the results follow.

The nature of the assay: Components of the Cytosolic LPS Sensing Pathway: Gene Identification via Genome-wide siRNA Screen.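 Also: robust z of the log signal after scaling to non-targeting control siRNA wells of the plate.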 To be noted: RAW264.7 macrophages, IL-1a HTRF, actives lie on both sides, screened at 100 nM (by protocol), cells primed 5 h with Pam3CSK4 first. The method, boiled down:
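RAW264.7; siRNA 100 nM final, RNAiMAX, 48h 37 degrees C; Pam3CSK4 5 h; LipidA + TransIT-TKO 24 h; IL-1a HTRF; CellTiter-Glo viability; robust z vs negative-control median.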
(TR-FRET usually uses a lanthanide donor and a delayed reading to cut background.)
With GCCACAUCAGAUGAAGUCCTT against Ppm1e, the z-score is active: -2.26. As for GGAUACUCUCAGGACGUGATT against Ncbp2, the z-score was active: -2.

For GCUUUGAAGUUCCUCAUGCTT against Otulinl, the z-score was inactive: 0.469. With GGGAGUAAAAAGGUGAUCATT against Gfra2, the z-score was inactive: -0.924.

Regarding GGGAGGUGAAACUGAGAAUTT against Mcpt4, the z-score was inactive: 1.01.

For the sequence GCUGCGUUACUGGAAGUUUTT against Loxl2, the z-score was inactive: 1.12.

As for GCAGUCAAAACCUAAAAGUTT against Slc25a40, the z-score is inactive: 0.116. As for GGACAAGUAUGAAUGUCUATT against Ptk2b, the z-score was inactive: 1.25. Take CCCUGUCAUGUCAGUGUGATT against Nat8f1: the z-score is inactive: -1.48.

GGAAAAGAUGAAGUGGUUUTT against H2bc6: the z-score is inactive: 0.0279. The value for GGCUGAAAACAUCGUGGUCTT against Sncg was inactive: 0.617; that for GGUGUAGACUAAGACAAUATT against Trmt1 was inactive: -0.156.

With GGACUCUGAAACCAUUAAATT against Fmo4, the z-score is inactive: -1.4. Regarding GGGCAUUAAAGAAUCCAUUTT against Olfr1008, the z-score was inactive: -0.202.

For the sequence GGCAUUUGAAGAUGAAAUGTT against Bzw2, the z-score is inactive: -0.00635. Turning to GGGAAGAAGCUUUGUGAUUTT against Adprm, the z-score was inactive: -1.15. Consider GCACGUGAUGCAAGUUCUATT against Rmnd1, for which the z-score is inactive: -0.74. Consider GGAGCUAGAACAGUUUGCCTT against Pou5f1, for which the z-score is inactive: 1.34. CCGAUUGAUAAAGUCACAUTT against Zfat: the z-score was inactive: 0.241. As to GGCUUUAGUAGACUACUUCTT against Hspa4l, the z-score is inactive: 0.411. For the sequence “GAUCCUCACGAAAUAGGUATT against Olfr1372-ps1”, the z-score is inactive: 0.737. With GCGACAACAUGCUUAGCACTT against Chil1 the figure was inactive: -0.695; with GGCAUUCAGAACUUACUAUTT against Ofd1, inactive: 0.612; with GGCCGGGAAGAAAGAGAAATT against Ptn, inactive: 0.514. With GGCCCUGAGAAACUAUAGGTT against Myh1, the z-score was inactive: 0.437. With GCCGUUCAAAAAUUUGUCCTT against Cyp11b2, the z-score is inactive: 0.721.

In the case of CGAAGCUGCAAAGGAGAAGTT against Igf1, the z-score was inactive: 0.505.

For CGGUUCCACUUCAAAUGACTT against Hsd17b2, the z-score is inactive: 0.72. Turning to GCAUCACUAGAUUUGGGCATT against Plekhg4, the z-score is inactive: 0.128. With GGAAGAUGUGAAGAUUUAATT against Acvr1b, the z-score was inactive: 1.89. Regarding CGACAUAAAGGCUUGUCAATT against Rabl3, the z-score was inactive: 0.518. The value for GGAGAUUCGCAUGCUCAUCTT against Ankrd44 was inactive: -1.77; that for GCACCUAGAUUGAUCAUAGTT against Olfr1183 was inactive: -0.894. Take GGAAAGGUGACCAAGAACUTT against Cadm3: the z-score was inactive: -1.34. Take GGUGUUUCGUCUACCCUUCTT against Olfr370: the z-score is inactive: 1.49.

Regarding GCGACACAGUAUGCUUAAGTT against Ggnbp2, the z-score is inactive: -1.63. With GGGAACUCCACUAAGGAAATT against Slc26a1, the z-score was inactive: 1.8. The value for GGUGGUCCGUAAAGUGGUUTT against Slc25a15 was inactive: 1.75.

GGACCAGAUUCACCAUAUUTT against Ifi44: the z-score is inactive: -1.99. GGAAUUCUUUCCAAACUGGTT against Steap1: the z-score is inactive: -0.0141. In the case of GGAAAAUAAAAUUGCAUGCTT against Oas1d, the z-score is inactive: 0.15. On to GCUUAAUCAACUGGUACUATT against Olfr19, for which the z-score is inactive: -1.7. For GAGAGGGCAUAAUGGUUUUTT against H3c3, the z-score is active: 4.58. With GGCAUGAAUACAUCACAGCTT against Vmn1r220, the z-score is inactive: -0.808. Consider GCUGUCAGCAAAUAAAUGCTT against Uqcr10, for which the z-score is inactive: 1.24. The value for GGCUGUCAUGGGUGAAUCCTT against Sprr2e was inactive: 0.31; that for GGAGAAAAGUCUACAGAAATT against Areg was inactive: 0.806; that for GGGAAAGGAUUUUUACAUUTT against Ctdsp1 was inactive: 1.83. With GGAUAUUACACCUACUUCUTT against Mmp24 the figure was inactive: -0.25. For the sequence GGAGAAGGUGCUCAAGUUGTT against Henmt1, the z-score was active: -2.45.

On to GGACCAAUCUAGAGCCCAUTT against Krt90, for which the z-score is inactive: -0.393. As for GGGAAAAAGAAAGCCCUUGTT against Olfr706, the z-score was inactive: 0.883. The value for GGAGACUGUGAAGUUUGUATT against Manf was inactive: -0.511; that for GGAAAAGAAGACAUUUCUCTT against Osbpl8 was inactive: -0.565.

Take CGAAGUACGAGAAACACGUTT against Smim19: the z-score was inactive: -0.969. On to GGAUCAGAACACUUUGGCATT against Tsen34, for which the z-score was inactive: -0.228. Take GCCACAACCACCUGAACUUTT against Amigo1: the z-score is inactive: -0.854.

On to GCUAGUUGGAGCUAGAUUATT against Dock5, for which the z-score was inactive: 0.159.

For the sequence GGAACCAAUCCAUAUUUGATT against Tnks, the z-score was inactive: 1.51. In the case of GCCCUAGAUCAGGAGAUCATT against Rps17, the z-score was inactive: 0.0945. On to GGUAUAUUGUGCCAGCACATT against Olfr705, for which the z-score was inactive: 0.00345. As for GGGUUUGGAAACUACAUUUTT against Phka2, the z-score is inactive: 1.57. With UGUUACUGGACUCUCCACATT against Olfr320, the z-score was inactive: 0.372. In the case of CUCCGACCAUACUGGAAGATT against Arpp21, the z-score was inactive: -0.406. With “CCUUGAUACCUUUCCAUGUTT against 9130008F23Rik”, the z-score was inactive: -0.68.

For the sequence CCACCUCAAGUCAAAGACUTT against Cggbp1, the z-score was inactive: -0.445. For CCUGAGACUGCAUCUUUUCTT against Slc10a7, the z-score was inactive: -0.693. For GUGCUUUUCGACUGCAUGATT against Mfsd4b5, the z-score is inactive: -0.609.
